In publication PMC4503752:
No constants are given. Whether binding was seen depends on the method and setting. In cells and extracts the contact can be indirect. Some entries that bind do so weakly or less than the wild type.

Sequences of proteins named here, by UniProt entry; tags and fusion partners are left off.
UniProt O88569: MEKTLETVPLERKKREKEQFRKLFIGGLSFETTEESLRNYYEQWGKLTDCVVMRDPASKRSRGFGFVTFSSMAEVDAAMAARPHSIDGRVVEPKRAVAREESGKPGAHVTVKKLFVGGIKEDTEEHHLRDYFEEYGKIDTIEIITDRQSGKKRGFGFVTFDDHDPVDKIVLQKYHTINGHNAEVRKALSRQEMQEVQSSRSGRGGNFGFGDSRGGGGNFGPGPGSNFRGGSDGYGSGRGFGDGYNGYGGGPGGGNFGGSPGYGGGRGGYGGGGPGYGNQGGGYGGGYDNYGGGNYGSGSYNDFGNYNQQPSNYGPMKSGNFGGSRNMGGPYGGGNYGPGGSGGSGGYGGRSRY
UniProt Q61584: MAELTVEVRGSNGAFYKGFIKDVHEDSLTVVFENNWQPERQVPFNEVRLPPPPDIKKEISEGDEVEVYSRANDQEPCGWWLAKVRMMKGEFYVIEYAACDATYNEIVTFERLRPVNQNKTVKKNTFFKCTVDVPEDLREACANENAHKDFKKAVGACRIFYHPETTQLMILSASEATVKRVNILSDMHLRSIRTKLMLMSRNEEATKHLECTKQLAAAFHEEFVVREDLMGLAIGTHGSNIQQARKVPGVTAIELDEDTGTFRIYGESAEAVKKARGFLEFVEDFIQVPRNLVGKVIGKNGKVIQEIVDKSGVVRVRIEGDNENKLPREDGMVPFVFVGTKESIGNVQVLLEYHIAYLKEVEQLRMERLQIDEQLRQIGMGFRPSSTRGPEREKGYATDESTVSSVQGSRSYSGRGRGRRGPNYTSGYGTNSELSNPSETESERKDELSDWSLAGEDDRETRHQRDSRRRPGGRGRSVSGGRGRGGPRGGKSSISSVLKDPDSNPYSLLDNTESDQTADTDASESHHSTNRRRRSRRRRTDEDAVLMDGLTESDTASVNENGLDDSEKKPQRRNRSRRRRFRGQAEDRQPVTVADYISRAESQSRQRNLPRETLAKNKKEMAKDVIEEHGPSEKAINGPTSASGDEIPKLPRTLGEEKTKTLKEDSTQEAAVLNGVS

Assays:
[1] = molecular target: HNRNPA2B1 (heterogeneous nuclear ribonucleoprotein A2/B1) (mouse (endogenous in ADSCs)) (UniProt O88569); assay: co-IP; lysates (150 mM NaCl, 0.5% IGEPAL CA-630, 50 mM Tris-HCl pH 8.0) of miR-369 transfected Dicer1-KO ADSCs; immunoprecipitation with primary antibody on Protein G Sepharose, western blot with the counterpart antibody; controls miR-369-5p and Dicer1 wild-type ADSCs
[2] = molecular target: Argonaute 1 (AGO1) (mouse (endogenous in ADSCs)) (UniProt Q8CJG1); assay: as above

| Substance | binding [1] | binding [2] |
| --- | --- | --- |
| Argonaute 1 (AGO1) (from UniProt Q8CJG1 1-857) | binds | – |
| HNRNPA2B1 (heterogeneous nuclear ribonucleoprotein A2/B1) (from UniProt O88569 1-353) | – | binds |
| fragile X mental retardation-related protein 1 (FXR1) (from UniProt Q61584 1-677) | – | binds |
